Measured values: PubChem BioAssay (NCATS)
This list was built around the results that the source calls inconclusive (neither active nor inactive); the mix of calls is not that of the screen. Potencies beside an inconclusive call are fits to weak or partial responses and may not hold up. Activity calls are given as the source filed them. The call rests on the fitted dose curve; in most records, active means well fitted cell-killing curve with a large enough effect; inconclusive means small, poorly fitted or top-dose-only effect, or effect the other way, or another doubt; inactive means no such curve, though single readings can be large or run the other way.
Potency means the concentration at half of the fitted maximal effect.

Assay: Identifying Small Molecule Inhibitors of Pancreatic Cancer Stem Cells (Panc1, Spheroid) (AID 1259359);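 further: compound exposure lasted 48 h before reading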
Conditions: Panc1 spheroid cancer stem cell viability; viability, % of control: at 46.1 µM (top of the series)
Source text: Progenitor-like cancer cells, often referred to as cancer stem cells (CSC), are believed to be the drivers of therapeutic resistance and rapid recurrence. CSCs are postulated to reside in specific niches characterized by low oxygen tension, limited nutrient supply, and high redox load. Selectively targeting CSC, alone or in combination with cytotoxic agents, as a means to produce durable remissions is an appealing concept. Modeling these cells in in vitro setting is an important step in finding new therapies and/or targets. Multiple reports highlight that forcing cells in culture into 3-dimensionaly architectures (spheroids) re-establishes key progenitor-like transcriptional signatures. Pancreatic cancer is among the diseases with the most dismal outlook which is driven, largely, by recurance following front-line therapies. […] In hopes of deriving new insight into the targeting of these pancreatic CSCs we examined three established pancreatic cancer cell lines in cytotoxicity assays versus a collection of approved and investigational drugs. Importantly, we screened these lines as traditional monolayer (2D) and spheroid (3D) formats to gain an appreciation of agents with differential activity.
Multicellular tumor spheroids from Panc1, MiaPaCa-2, and the primary low-passage tissue culture line SB.06 were seeded in stem cell media (SCM) in nonadherent 6-well plates coated with hydrogel (Corning Life Sciences, Chelmsford, Mass) and pancreatic spheres generated for 14 days before screening. Cells were seeded into 1536-well solid-bottom white tissue culture treated Greiner Bio One Plates (789173-F) using a MultiDrop Combi (Thermofisher Scientific) dispenser and a small sterile cassette. One column was media alone to be used as a :"no cells" control. The plates were then covered with sterilized stainless steel gasketed lids from Kalypsys. After allowing cells to attach for 4 hours, 23 nL of test compound or control (negative control DMSO and positive control 9.2 uM Bortezomib-final) were added from a 1536-well polypropylene compound source plate to each well using a 1536 head pin tool from Kalypsys. Cells were then incubated for 48 hours at 37C, 95% relative humidity and 5% CO2. After 48 hours, plates were removed from the incubator and 3 uL of CellTiter-Glo (Promega) was added using an Aurora Flying Reagent Dispenser Bioraptor. Plates were incubated at room temperature for 10 minutes prior to reading the luminescence on the Viewlux (PerkinElmer). The relative luciferase units are used to calculate the percent activity using the activity of DMSO in the cells and no cells columns for normalization of no inhibition and full inhibition respectively.
With `CCOC(=O)N[C@@H]1CC[C@@H]2[C@@H](C1)C[C@H]1C(=O)O[C@H](C)[C@H]1[C@@H]2C=Cc1ccc(-c2cccc(F)c2)cn1` the Potency was inconclusive: 2.96 µM [cytotoxic, partial curve].
For `O=C(O)CCC1CCC(c2cc(F)ccc2F)(S(=O)(=O)c2ccc(Cl)cc2)CC1` (stereo not given), the Potency was active: 3.32 µM.
In the case of `CCCCc1ccc(NS(=O)(=O)c2ccc(C)c(C(=O)N3CCN(c4cccc(C)c4C)CC3)c2)cc1`, the Potency was inconclusive: 29.6 µM [cytotoxic, partial curve, poor fit].
With `CCC(C)N(C)C(=O)c1cc2ccccc2c(-c2ccccc2Cl)n1` (stereo not given) the Potency was inconclusive: 14.8 µM [cytotoxic, partial curve, poor fit].
In the case of `CN1CCN(CCOc2cc(OC3CCOCC3)c3c(Nc4c(Cl)ccc5c4OCO5)ncnc3c2)CC1`, the viability, % of control was inconclusive: 51.9%.
In the case of `CN(C)Cc1ccc(-c2nc3cccc4c3n2CCNC4=O)cc1`, the Potency was inconclusive: 0.0017 µM [rising, full curve, poor fit].
In the case of `Cn1c2cc(S(C)=O)sc2c2cnn(Cc3cccc(N)c3)c(=O)c21` (stereo not given), the Potency was inconclusive: 0.0037 µM [cytotoxic, full curve, poor fit].
With `COc1cc([C@@H]2c3cc4c(cc3[C@H](O)[C@H]3COC(=O)[C@H]23)OCO4)cc(OC)c1OC` the Potency was active: 0.0021 µM.
For `CN(C)c1ccc(C2Nc3ccc4ccccc4c3C3=C2C(=O)CC(C)(C)C3)cc1Br` (stereo not given), the Potency was inconclusive: 6.62 µM [cytotoxic, partial curve, poor fit].
For `CN[C@@H](C)C(=O)N[C@H]1CCCC[C@H]2CC[C@@H](C(=O)N[C@@H](c3ccccc3)c3cn(CCCCc4ccc(CCCCn5cc([C@@H](NC(=O)[C@@H]6CC[C@@H]7CCCC[C@H](NC(=O)[C@H](C)NC)C(=O)N76)c6ccccc6)nn5)cc4)nn3)N2C1=O`, the viability, % of control was inconclusive: 92%.
For `O=C(C1CC1)N1CC[C@@H](Cn2c(-c3ccc(-c4ccc5occc5c4)cc3)nc3cnccc32)C1`, the Potency was inconclusive: 0.0012 µM [cytotoxic, full curve, poor fit].
In the case of `CC(C)C[C@H](NC(=O)[C@H](CCc1ccccc1)NC(=O)CN1CCOCC1)C(=O)N[C@@H](Cc1ccccc1)C(=O)N[C@@H](CC(C)C)C(=O)[C@@]1(C)CO1`, the Potency was inconclusive: 0.0209 µM [cytotoxic, full curve].
For `Cc1cccc(-c2[nH]ncc2-c2ccc3ncccc3n2)n1`, the Potency was inconclusive: 1.91 µM [cytotoxic, full curve, poor fit].
In the case of `CCOC(=O)C1=C(O)C(=O)N(Cc2ccccc2)C1`, the Potency was inconclusive: 37.2 µM [cytotoxic, single point].
In the case of `COCCNCCCn1c(C(=O)CF)c(-c2ccc(C)cc2)c2c(N)ncnc21`, the viability, % of control was inconclusive: 135%.
With `COc1cc(N2CCC(N3CCN(C)CC3)CC2)ccc1Nc1ncc(Cl)c(Nc2ccccc2S(=O)(=O)C(C)C)n1` the Potency was active: 0.418 µM.
With `CS(=O)(=O)N1CCN(Cc2cc3nc(-c4cccc5[nH]ncc45)nc(N4CCOCC4)c3s2)CC1` the Potency was inconclusive: 11.8 µM [cytotoxic, partial curve, poor fit].
With `O=c1cc(N2CCOCC2)oc2c(-c3cccc4c3sc3ccccc34)cccc12` the Potency was inconclusive: 33.2 µM [cytotoxic, single point].
In the case of `Cc1nc(Nc2ncc(C(=O)Nc3c(C)cccc3Cl)s2)cc(N2CCN(CCO)CC2)n1`, the Potency was inconclusive: 13.2 µM [cytotoxic, single point].
For `COc1ccc(CC2SC(=O)NC2=O)cc1C(=O)NCc1ccc(C(F)(F)F)cc1` (stereo not given), the viability, % of control was inconclusive: 118%.
With `CC(C)(C)c1cc(C(=O)O)c(NC(=O)Nc2ccc3[nH]ncc3c2)s1` the viability, % of control was inconclusive: 88.2%.
With `COc1ccc(-c2c(-c3ccc(O)cc3O)n[nH]c2C)cc1` the viability, % of control was inconclusive: 125%.
In the case of `CCC(C)n1ncn(-c2ccc(N3CCN(c4ccc(OC[C@H]5CO[C@](Cn6cncn6)(c6ccc(Cl)cc6Cl)O5)cc4)CC3)cc2)c1=O` (stereo not given in full), the Potency was inconclusive: 0.743 µM [cytotoxic, full curve, poor fit].
With `CC(=O)OCC(=O)[C@@]1(O)[C@H](C)C[C@H]2[C@@H]3C=C(C)C4=Cc5c(cnn5-c5ccccc5)C[C@]4(C)[C@@H]3[C@@H](O)C[C@@]21C` the Potency was active: 14.8 µM.
With `Cc1cccc(-c2nn(C(=S)Nc3ccccc3)cc2-c2ccnc3ccccc23)n1` the Potency was inconclusive: 3.72 µM [rising, partial curve, poor fit].
In the case of `CCN(CCO)CCCC(C)Nc1ccnc2cc(Cl)ccc12` (stereo not given), the Potency was inconclusive: 0.0118 µM [rising, full curve, poor fit].
With `Nc1ncnc2nc(-c3ccc(N4CCOCC4)nc3)cc(-c3cccc(Br)c3)c12` the Potency was inconclusive: 0.0019 µM [cytotoxic, full curve, poor fit].
In the case of `CO[C@@H](C(=O)N1Cc2[nH]nc(NC(=O)c3ccc(N4CCN(C)CC4)cc3)c2C1)c1ccccc1`, the Potency was inconclusive: 0.0187 µM [cytotoxic, full curve, poor fit].
In the case of `COc1cc(F)c(F)c(Nc2ccc(I)cc2F)c1NS(=O)(=O)C1(C[C@H](O)CO)CC1`, the viability, % of control was inconclusive: 91.4%.
In the case of `C[C@]1(c2nc3c(C(N)=O)cccc3[nH]2)CCCN1`, the Potency was inconclusive: 23.5 µM [rising, single point].
In the case of `N#Cc1ccc(C(c2ccc(C#N)cc2)n2cncn2)cc1`, the viability, % of control was inconclusive: 95.2%.
In the case of `CC1(C)SCCN(S(=O)(=O)c2ccc(OCC#CCO)cc2)[C@@H]1C(=O)NO`, the Potency was inconclusive: 2.96 µM [rising, partial curve, poor fit].
With `CC(C)(C)C(=O)Oc1ccc2c(c1)nc(NC(=O)c1cccc([N+](=O)[O-])c1)n2CCCO` the Potency was inconclusive: 3.32 µM [cytotoxic, partial curve, poor fit].
For `CNC(=O)c1cc(Oc2ccc(NC(=O)Nc3ccc(Cl)c(C(F)(F)F)c3)c(F)c2)ccn1`, the Potency was active: 20.9 µM.
For `CCN(CC)CCCC(C)Nc1nc(C)cc(Nc2ccc3nc(C)cc(N)c3c2)n1` (stereo not given), the viability, % of control was inconclusive: 91.8%.
For `Nc1nc2[nH]cc(CCc3ccc(C(=O)N[C@@H](CCC(=O)O)C(=O)O)cc3)c2c(=O)[nH]1`, the Potency was inconclusive: 0.118 µM [rising, full curve, poor fit].
With `CC1(C)Cc2c(-c3ccccc3)c(-c3ccc(Cl)cc3)c(CC(=O)O)n2C1` the Potency was inconclusive: 3.72 µM [rising, partial curve, poor fit].
For `NC(=O)c1ccc(N(C(N)=O)c2c(F)cccc2F)nc1-c1ccc(F)cc1F`, the Potency was inconclusive: 0.264 µM [cytotoxic, full curve, poor fit].
In the case of `CCOC(CN1C(=O)[C@](CC(=O)Nc2ccc(C)cc2)(NC(=O)Nc2ccc(C)cc2)c2ccccc21)OCC`, the Potency was inconclusive: 14.8 µM [cytotoxic, partial curve, poor fit].
In the case of `O=C(Nc1cccnc1)N1CCC(Cc2cccc(Oc3ccc(C(F)(F)F)cn3)c2)CC1`, the Potency was inconclusive: 5.26 µM [cytotoxic, full curve, poor fit].
